Earlier results on one compound are cited in US20170151256A1, “ANTITUMOR AGENT” (ZERIA PHARMACEUTICAL CO., LTD., priority 2005, published 2017).

Protein sequences, listed by entry. Tags and fused reporters are not part of them.
UniProt P30553, whole entry: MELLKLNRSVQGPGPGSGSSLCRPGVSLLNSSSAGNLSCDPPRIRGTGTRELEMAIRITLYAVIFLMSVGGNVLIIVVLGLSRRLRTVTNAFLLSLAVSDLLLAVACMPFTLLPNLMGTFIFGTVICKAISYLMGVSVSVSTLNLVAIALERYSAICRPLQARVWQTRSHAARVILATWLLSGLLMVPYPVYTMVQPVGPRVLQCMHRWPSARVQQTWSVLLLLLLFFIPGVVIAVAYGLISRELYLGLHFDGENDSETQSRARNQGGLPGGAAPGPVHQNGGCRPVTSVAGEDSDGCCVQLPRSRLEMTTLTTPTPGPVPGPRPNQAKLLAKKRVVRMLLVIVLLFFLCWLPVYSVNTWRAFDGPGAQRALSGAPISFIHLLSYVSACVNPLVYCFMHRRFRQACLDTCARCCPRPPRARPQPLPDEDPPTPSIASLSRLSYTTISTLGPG

Series [1] deals with gastrin-stimulated gastric acid secretion. The following applies: intraduodenal administration, rat; Gastroenterology 2001; A-311: 1605; cited from earlier work.
For series [2], the target named is rat gastrin receptor (Rattus norvegicus, UniProt P30553). The following applies: read-out: Ki value, binding affinity to rat gastrin receptor; Gastroenterology 2001; A-311: 1605; cited from earlier work.

Structures were worked out from names or drawings and are uncertain.

As for `CC(C)(C)C(=O)CN1C(=O)[C@H](NC(=O)Nc2cccc(C(=O)O)c2)CN(C2CCCCC2)c2ccccc21` [compound A, (R)-(−)-3-[3-(1-tert-butylcarbonylmethyl-2-oxo-5-cyclohexyl-1,3,4,5-tetrahydro-2H-1,5-benzodiazepin-3-yl)ureido]benzoic acid], in series [1], the “Dose suppressing gastrin-stimulated gastric acid secretion by 50%” value is given as 0.17 mg/kg. Further, the Ki (commonly a dissociation constant, usually derived from enzyme kinetics or from competition with a known ligand) in series [2] was 0.24 nM.
